Results reported in patent publication US12723279B2, “Long stokes shift chromenoquinoline dyes and uses in sequencing applications” (priority 2020, dated 2026).

Assays:
PhiX [1] = test: Sequencing by synthesis on Illumina iSeq 100 instrument, standard SBS cycle, ethanolamine incorporation mix; conditions: 2×300 cycles; for Error Rate (%): PhiX
PhiX [2] = test: Sequencing by synthesis on Illumina iSeq 100 instrument, glycine incorporation mix, palladium cleavage solution; conditions: for Error Rate (%): PhiX

COc1cc2cc3c([n+](C)c2cc1OC)-c1cc2c(cc1OC3)N(CCCC(=O)NCCCCCNC(=O)c1cccc(OCC(N=[N+]=[N-])OCC(=O)NCC#Cc3cn([C@H]4CC(OCN=[N+]=[N-])[C@@H](COP(=O)(O)OP(=O)(O)OP(=O)(O)O)O4)c4ncnc(N)c34)c1)CCC2 (some centres unmarked) [ffA-sPA-LN3-I-4]
% Q30 (PhiX [1]; Read 1): 91.49% | % Q30 (Last 10 Cycles) (PhiX [1]; Read 1): 72.75% | Phasing (PhiX [1]; Read 1): 0.111 | Prephasing (PhiX [1]; Read 1): 0.129 | % Q30 (PhiX [1]; Read 2): 85.57% | % Q30 (Last 10 Cycles) (PhiX [1]; Read 2): 55.56% | Phasing (PhiX [1]; Read 2): 0.11 | Prephasing (PhiX [1]; Read 2): 0.141 | Error Rate (%) (PhiX [1]; Read 1): 0.81% | Error Rate (%) (PhiX [1]; Read 2): 1.01%

C=CCOCOC1C[C@H](n2cc(C#CCNC(=O)COC(COc3cccc(C(=O)NCCCCCNC(=O)CCCN4CCCc5cc6c(cc54)OCc4cc5cc(OC)c(OC)cc5[n+](C)c4-6)c3)OCC=C)c3c(N)ncnc32)O[C@@H]1COP(=O)(O)OP(=O)(O)OP(=O)(O)O (some centres unmarked) [ffA-AOM-AOL-I-4]
% Q30 (PhiX [2]; 150 cycles, Read 1): 92.84% | Phasing (PhiX [2]; 150 cycles, Read 1): 0.156 | Preptlasing (PhiX [2]; 150 cycles, Read 1): 0.059 | % Q30 (PhiX [2]; 150 cycles, Read 2): 91.16% | Phasing (PhiX [2]; 150 cycles, Read 2): 0.197 | Preptlasing (PhiX [2]; 150 cycles, Read 2): 0.07 | % Q30 (PhiX [2]; 300 cycles, Read 1): 93.05% | Phasing (PhiX [2]; 300 cycles, Read 1): 0.128 | Preptlasing (PhiX [2]; 300 cycles, Read 1): 0.064 | % Q30 (PhiX [2]; 300 cycles, Read 2): 90.9% | Phasing (PhiX [2]; 300 cycles, Read 2): 0.142 | Preptlasing (PhiX [2]; 300 cycles, Read 2): 0.053 | Error Rate (%) (PhiX [2]; 150 cycles, Read 1): 0.53% | Error Rate (%) (PhiX [2]; 150 cycles, Read 2): 0.53% | Error Rate (%) (PhiX [2]; 300 cycles, Read 1): 0.74% | Error Rate (%) (PhiX [2]; 300 cycles, Read 2): 0.65%
